In patent US20230303699A1 (EXELIXIS, published 2023):
Positions count from the first letter of the chain named. Results are given in words; binding and its absence hold for the method and conditions named. Some binding calls cover weakened binding; strength is not graded here.

Chains of the proteins cited; added tags and fusions are not shown. Lines headed by an entry give the natural chain unless they say otherwise; changes in a name come on top.
UniProt Q9NZQ7: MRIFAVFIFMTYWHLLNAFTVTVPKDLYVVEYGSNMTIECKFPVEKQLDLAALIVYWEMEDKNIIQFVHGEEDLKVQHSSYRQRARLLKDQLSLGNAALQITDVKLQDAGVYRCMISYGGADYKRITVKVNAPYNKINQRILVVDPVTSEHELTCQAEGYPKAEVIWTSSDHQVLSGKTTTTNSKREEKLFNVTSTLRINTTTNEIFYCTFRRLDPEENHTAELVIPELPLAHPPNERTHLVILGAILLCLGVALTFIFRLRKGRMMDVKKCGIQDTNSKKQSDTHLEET

Experiments:
[1] = target: PD-L1 on PD-L1 overexpressing CHO-K1 cells (Homo sapiens (Human)) (UniProt Q9NZQ7); test: flow cytometry on PD-L1 CHO-K1 cells
[2] = target: biotinylated human PD-L1 (extracellular domain) (human) (UniProt Q9NZQ7); test: Octet BLI, bivalent; biotinylated PD-L1 on streptavidin sensor
[3] = target: human PD-L1-His tag (extracellular domain) (human) (UniProt Q9NZQ7); test: Octet BLI, monovalent
[4] = target: biotinylated human PD-L1 (extracellular domain) (human) (UniProt Q9NZQ7); test: Octet BLI, bivalent
[5] = target: human PD-L1-His tag (extracellular domain) (human) (UniProt Q9NZQ7); test: bio-layer interferometry (Octet); the text calls FIGS. 1A-1C monovalent binding (IgG on an Fc capture sensor, soluble PD-L1-His); concentration not given; format doubtful
[6] = target: PD-L1 on PD-L1 overexpressing CHO-K1 cells (Homo sapiens (Human)) (UniProt Q9NZQ7); test: flow cytometry on PD-L1 overexpressing CHO-K1 cells, AF488 goat anti human IgG Fab secondary, MFI

Measured: binding

B1: antibody designated P22 (antibody, human IgG1, kappa, V domains shown)
VH: EVQLVESGGGLVQPGGSLRLSCAASGFTFSSYYIHWVRQAPGKGLEWVAWITSHGYSTKYADSVKGRFTISADTSKNTAYLQMNSLRAEDTAVYYCARDSVIYGLDYWGQGTLVTAST
VL: DIQMTQSPSSLSASVGDRVTITCRASQSVSSAVAWYQQKPGKAPKLLIYSASSLYSGVPSRFSGSRSGTDFTLTISSLQPEDFATYYCQQYYTSPYTFGQGTKVEIKR
notes: Tested as full length IgG
not listed: [6]
binds: all other assays above

B2: antibody designated P24 (antibody, human IgG1, kappa, V domains shown)
VH: EVQLVESGGGLVQPGGSLRLSCAASGFTFDQYYIHWVRQAPGKGLEWVAEIYPAGSYTYYADSVKGRFTISADTSKNTAYLQMNSLRAEDTAVYYCARGPYSVRYALDYWGQGTLVTAST
VL: B1 VL with Y91V, Y92S, T93Y
notes: Tested as full length IgG
not listed: [5]
binds: all other assays above

B3: antibody designated P31.2 (antibody, human IgG1, kappa, V domains shown)
VH: EVQLVESGGGLVQPGGSLRLSCAASGFTFSSYYIHWVRQAPGKGLEWVATISSGGGFTYYADSVKGRFTISADTSKNTAYLQMNSLRAEDTAVYYCARGYTLTPVLDYWGQGTLVTAST
VL: B1 VL with Y91F, Y92G, T93A, S94E, Y96I
notes: Tested as full length IgG
binds: [1] | [2] | [3] | [4]
